Here are results for one substance from paper PMC7202230.

Sequences of proteins named here, by UniProt entry; tags and fusion partners are left off.
UniProt O43765: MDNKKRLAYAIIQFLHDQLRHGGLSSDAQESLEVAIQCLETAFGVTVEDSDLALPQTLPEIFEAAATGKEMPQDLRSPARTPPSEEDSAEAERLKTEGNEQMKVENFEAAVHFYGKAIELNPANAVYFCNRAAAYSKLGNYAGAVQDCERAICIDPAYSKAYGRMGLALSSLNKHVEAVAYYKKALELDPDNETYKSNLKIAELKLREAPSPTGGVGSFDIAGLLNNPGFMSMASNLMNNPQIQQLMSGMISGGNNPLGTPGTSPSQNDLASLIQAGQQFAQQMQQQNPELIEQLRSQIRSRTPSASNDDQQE
UniProt Q9Y6X1: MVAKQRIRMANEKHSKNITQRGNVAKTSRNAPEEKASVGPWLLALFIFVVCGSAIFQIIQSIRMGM

These are yes or no findings as the source states them, for the method shown. In cells and extracts the contact can be indirect. Some entries that bind do so weakly or less than the wild type.

In the assay the target is HisTrx-SGTA (recombinant human SGTA, HisTrx-tagged) (human) (UniProt O43765).

As to “RAMP4, stress-associated endoplasmic reticulum protein 1 (mRNA with a stop codon) (from UniProt Q9Y6X1 1-66)”, the binding result is given as “binds”.
